In patent publication US20260007749A1:
Where a chain is given by its changes, count along the chain named. Names may count otherwise. Results are given in words; binding and its absence hold for the method and conditions named. Some entries that bind do so weakly or less than the wild type.

The chains behind the UniProt entries cited, without tags or fusion partners. Where a name states a change or a piece, a line headed by the entry shows the natural chain unless it says otherwise.
UniProt Q13421: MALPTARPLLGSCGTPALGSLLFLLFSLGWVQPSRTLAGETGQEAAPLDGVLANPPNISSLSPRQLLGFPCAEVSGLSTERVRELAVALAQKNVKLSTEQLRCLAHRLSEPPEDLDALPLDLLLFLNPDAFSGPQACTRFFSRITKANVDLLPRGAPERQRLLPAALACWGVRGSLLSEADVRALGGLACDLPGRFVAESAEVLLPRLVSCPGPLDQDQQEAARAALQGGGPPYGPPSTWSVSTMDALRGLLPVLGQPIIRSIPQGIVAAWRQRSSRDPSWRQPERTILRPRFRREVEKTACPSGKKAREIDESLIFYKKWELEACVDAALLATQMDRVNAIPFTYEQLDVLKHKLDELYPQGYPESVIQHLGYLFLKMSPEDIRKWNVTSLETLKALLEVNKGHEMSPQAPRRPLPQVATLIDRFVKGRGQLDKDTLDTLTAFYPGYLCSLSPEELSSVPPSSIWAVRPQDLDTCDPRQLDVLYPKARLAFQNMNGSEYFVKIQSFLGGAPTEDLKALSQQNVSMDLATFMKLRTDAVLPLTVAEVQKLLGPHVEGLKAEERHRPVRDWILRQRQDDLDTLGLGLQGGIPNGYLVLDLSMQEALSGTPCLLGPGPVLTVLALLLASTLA

B1: MSLN34 scFv (wild type) (scFv, not shown: large carriers)
scFv: EVQLVESGGGLVQPGGSLRLSCAASGFTFSDYGMHWVRQAPGKGLEWVSSIYGSGGHTGYADSVKGRFTISRDNSKNTLYLQMNSLRAEDTAVYYCAKQHAYRYSYAFDVWGQGTLVTVSSGGGGSGGGGSGGGGSDIQMTQSPSSLSASVGDRVTITCRASQSISNWLNWYQQKPGKAPKLLIYATSSLQSGVPSRFSGSGSGTDFTLTISSLQPEDFATYYCQQSYSFPFTFGQGTKVEIK
B2: MSLN34 S192R scFv (scFv, not shown: small tags and cut ends)
scFv: B1 scFv with S192R
B3: MSLN34 D31L/S192R scFv (scFv, not shown: small tags and cut ends)
scFv: B1 scFv with D31L, S192R
B4: MSLN34 D31L scFv (scFv, not shown: small tags and cut ends)
scFv: B1 scFv with D31L
B5: MSLN34 S192F scFv (scFv, not shown: small tags and cut ends)
scFv: B1 scFv with S192F

How the values were obtained:
[1] = target: Human Mesothelin/MSLN (296-580) (human) (UniProt Q13421); assay: ELISA, MSLN coated on plate, scFv in 1/3 serial dilution, anti-strep HRP
[2] = target: Human Mesothelin/MSLN (296-580) (human) (UniProt Q13421); assay: ELISA, MSLN coated on plate, same method as for the single mutants
[3] = target: Human Mesothelin/MSLN (296-580) (human) (UniProt Q13421); assay: ELISA, MSLN coated on plate (refers back to Experimental Example 2.2)
[4] = target: Human Mesothelin/MSLN (296-580) (human) (UniProt Q13421); assay: ELISA, MSLN coated on plate (refers back to Experimental Examples 2.2 and 2.3)

Binder	binding [1]	binding [2]	binding [3]	binding [4]
B1	binds	binds		
B2	binds		binds	binds
B3		binds		binds
B4	binds		binds	binds
B5	binds			
